Measurements reported in PubChem BioAssay AID2685 (National Center for Advancing Translational Sciences (NCATS), 2010).
Out of some 320,000 compounds screened, about 2,100 (0.66%) were called active. The call rests on the fitted dose curve; in most records, active means well fitted inhibition curve with a large enough effect in the signal ratio, with a control signal flat (not every such curve was filed as active); inconclusive means small, poorly fitted or top-dose-only effect, or effect the other way, or a change in a side signal; inactive means flat fitted curve, though single readings scatter; the % refers to the signal ratio. The inconclusive results got no clear call from the source. Potencies beside an inconclusive call are fits to weak or partial responses and may not hold up.

test: qHTS Assay for Lipid Storage Modulators in Drosophila S3 Cells; settings: BODIPY lipid droplet fluorescence, 18-24 h, cells fed with added oleic acid; lipid storage change, negative = inhibition: at 46.1 µM (top of the series) unless noted
How it was run: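 Laser-scanning cytometry quantifies lipid droplet accumulation (500–530 nm total intensity; droplet/cell object ratio) in oleic acid-fed (400 uM added) Drosophila S3 cells treated with a concentration series. 20 uM Triacsin C defined 100% inhibition.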
On the % scale 0 is the no-effect control and ±100 the full control effect; potency means the concentration at half of the fitted maximal effect.

Lipid storage change, negative = inhibition, inconclusive:
O=C1NC(=S)N/C1=C/c1ccc2c(c1)OCO2 -10.7%, CC(C)CN(C(=O)COC(=O)c1c(Cl)ccc(Cl)c1Cl)C1CCS(=O)(=O)C1 (stereo unspecified) -1.56%, Cc1oc(C(=O)O)cc1CSCc1cc(C(=O)O)c(C)o1 -58.8%, C/C(=N\NC(=O)CNC(=O)c1ccc2c(c1)OCO2)c1ccco1 19%, CC(C)CNC(=S)N1CCN(c2nc(-c3ccc(Cl)cc3)cs2)CC1 -60.9%, O=C(Nc1ccnn1C1CCN(C(=O)c2ccc(Cl)c(F)c2)CC1)C1CCOC1 (stereo unspecified) 42.7%, O=C(N/N=C/c1ccccc1O)C1CCCC1 -92.4%, CNc1nc2ccccc2n1N -13.5%, Cn1cc(CC(=O)NCCCN2CCCC2=O)c2ccccc21 -37.4%, Cc1cc(C)c[n+](C2=C([O-])c3ccccc3C(=O)/C2=N\S(=O)(=O)c2cccs2)c1 -13.8%, O=C(COc1cccc2ccccc12)Nc1cc(S(=O)(=O)N2CCOCC2)ccc1N1CCOCC1 -85.8%, CSc1c(SCc2ccccc2)cnn(Cc2ccccc2)c1=O 39.3%, CCOC(=O)c1c(CN(C)C)n(-c2ccccc2)c2cc(Br)c(OC)cc12 -0.993%

Potency, inconclusive:
Cc1ccc(C2CC(c3cccs3)=NN2C(=O)CSc2nc3ccccc3o2)cc1 (stereo unspecified) 23.1 µM [falling, partial curve], Cc1cc(Cn2nc(C(=O)NCc3cccs3)cc2-c2ccccc2)on1 6.51 µM [activator, single point], Cc1nn(C)cc1S(=O)(=O)NCc1ccccc1Cl 0.0046 µM [activator, full curve, poor fit], Cc1ccc(C(=O)NCC(=O)N2CCCCCCC2)cc1 1.3 µM [falling, full curve], c1ccc(Nc2nc(N3CCCC3)nc(N3CCCC3)n2)cc1 4.61 µM [activator, single point], Cc1cccc(NC(=O)CN(c2ccc(C(C)C)cc2)S(=O)(=O)c2c(C)nn(C)c2C)n1 2.31 µM [rising, full curve], O=C(CS(=O)(=O)c1ccc(Cl)cc1)Nc1nnc(-c2cccs2)o1 16.4 µM [falling, partial curve, poor fit], c1ccc(Nc2nnc(SCc3cccc4ccccc34)s2)cc1 7.31 µM [rising, partial curve]
